Test results published in article PMC6461443.
No constants are given. Whether binding was seen depends on the method and setting.

The chains behind the UniProt entries cited, without tags or fusion partners.
UniProt P04133: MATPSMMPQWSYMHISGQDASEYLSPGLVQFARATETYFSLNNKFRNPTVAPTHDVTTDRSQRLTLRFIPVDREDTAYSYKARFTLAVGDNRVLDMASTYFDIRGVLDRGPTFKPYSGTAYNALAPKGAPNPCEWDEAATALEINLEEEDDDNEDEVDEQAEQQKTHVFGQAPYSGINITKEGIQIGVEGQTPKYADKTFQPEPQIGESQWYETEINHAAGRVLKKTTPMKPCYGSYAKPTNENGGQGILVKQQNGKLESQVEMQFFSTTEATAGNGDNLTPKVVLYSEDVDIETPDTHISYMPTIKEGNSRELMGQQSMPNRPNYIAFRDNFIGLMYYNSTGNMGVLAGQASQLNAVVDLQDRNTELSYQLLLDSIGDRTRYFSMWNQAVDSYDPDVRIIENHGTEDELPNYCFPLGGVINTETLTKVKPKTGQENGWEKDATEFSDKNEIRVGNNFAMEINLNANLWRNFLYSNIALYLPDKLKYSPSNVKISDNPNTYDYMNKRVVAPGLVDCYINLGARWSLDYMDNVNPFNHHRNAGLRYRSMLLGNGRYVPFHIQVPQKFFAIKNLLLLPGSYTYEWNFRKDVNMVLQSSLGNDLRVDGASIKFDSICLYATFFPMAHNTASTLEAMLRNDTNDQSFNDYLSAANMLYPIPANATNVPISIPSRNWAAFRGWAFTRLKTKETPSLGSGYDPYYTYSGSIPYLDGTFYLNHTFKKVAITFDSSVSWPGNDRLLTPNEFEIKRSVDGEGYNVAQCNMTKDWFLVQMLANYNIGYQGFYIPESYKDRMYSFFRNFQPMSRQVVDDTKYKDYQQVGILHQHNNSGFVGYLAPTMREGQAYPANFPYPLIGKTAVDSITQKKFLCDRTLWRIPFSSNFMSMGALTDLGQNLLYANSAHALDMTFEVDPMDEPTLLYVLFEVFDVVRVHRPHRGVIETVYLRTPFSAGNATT
UniProt P12538: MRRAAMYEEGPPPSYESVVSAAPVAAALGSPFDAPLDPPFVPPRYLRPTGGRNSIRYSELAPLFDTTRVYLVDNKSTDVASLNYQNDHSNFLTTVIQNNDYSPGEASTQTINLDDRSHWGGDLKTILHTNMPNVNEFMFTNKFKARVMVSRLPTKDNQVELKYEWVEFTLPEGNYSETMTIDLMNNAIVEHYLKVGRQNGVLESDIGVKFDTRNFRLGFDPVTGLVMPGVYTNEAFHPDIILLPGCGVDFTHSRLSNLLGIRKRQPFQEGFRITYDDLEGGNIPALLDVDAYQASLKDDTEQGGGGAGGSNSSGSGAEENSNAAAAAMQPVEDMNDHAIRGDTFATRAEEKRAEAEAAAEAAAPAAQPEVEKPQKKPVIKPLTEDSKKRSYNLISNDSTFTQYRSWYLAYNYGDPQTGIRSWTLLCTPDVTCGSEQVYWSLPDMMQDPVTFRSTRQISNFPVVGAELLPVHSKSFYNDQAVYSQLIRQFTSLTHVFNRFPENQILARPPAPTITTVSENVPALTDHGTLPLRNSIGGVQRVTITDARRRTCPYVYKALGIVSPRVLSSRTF

Target: Ad5 hexon, in the virion (human adenovirus 5) (UniProt P04133)
Experiment: co-IP; both purified

For “Ad5 penton base (from UniProt P12538 1-571)”, the binding was “no binding (condition: after heating Ad5 to 49°C)”.
